{"sequences": {"note": "Sequences of proteins named here, by UniProt entry; tags and fusion partners are left off. A change or cut given only in a name is not applied to a line headed by its entry.", "UniProt P17096": "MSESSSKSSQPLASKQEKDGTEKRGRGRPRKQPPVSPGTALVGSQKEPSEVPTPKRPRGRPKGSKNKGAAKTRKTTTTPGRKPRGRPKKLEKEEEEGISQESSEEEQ", "UniProt Q96DE0": "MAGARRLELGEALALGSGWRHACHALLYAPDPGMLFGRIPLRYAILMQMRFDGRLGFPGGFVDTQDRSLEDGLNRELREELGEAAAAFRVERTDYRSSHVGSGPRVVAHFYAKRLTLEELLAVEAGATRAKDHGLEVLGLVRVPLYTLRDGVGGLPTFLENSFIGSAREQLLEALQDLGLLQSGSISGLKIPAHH", "UniProt P09874": "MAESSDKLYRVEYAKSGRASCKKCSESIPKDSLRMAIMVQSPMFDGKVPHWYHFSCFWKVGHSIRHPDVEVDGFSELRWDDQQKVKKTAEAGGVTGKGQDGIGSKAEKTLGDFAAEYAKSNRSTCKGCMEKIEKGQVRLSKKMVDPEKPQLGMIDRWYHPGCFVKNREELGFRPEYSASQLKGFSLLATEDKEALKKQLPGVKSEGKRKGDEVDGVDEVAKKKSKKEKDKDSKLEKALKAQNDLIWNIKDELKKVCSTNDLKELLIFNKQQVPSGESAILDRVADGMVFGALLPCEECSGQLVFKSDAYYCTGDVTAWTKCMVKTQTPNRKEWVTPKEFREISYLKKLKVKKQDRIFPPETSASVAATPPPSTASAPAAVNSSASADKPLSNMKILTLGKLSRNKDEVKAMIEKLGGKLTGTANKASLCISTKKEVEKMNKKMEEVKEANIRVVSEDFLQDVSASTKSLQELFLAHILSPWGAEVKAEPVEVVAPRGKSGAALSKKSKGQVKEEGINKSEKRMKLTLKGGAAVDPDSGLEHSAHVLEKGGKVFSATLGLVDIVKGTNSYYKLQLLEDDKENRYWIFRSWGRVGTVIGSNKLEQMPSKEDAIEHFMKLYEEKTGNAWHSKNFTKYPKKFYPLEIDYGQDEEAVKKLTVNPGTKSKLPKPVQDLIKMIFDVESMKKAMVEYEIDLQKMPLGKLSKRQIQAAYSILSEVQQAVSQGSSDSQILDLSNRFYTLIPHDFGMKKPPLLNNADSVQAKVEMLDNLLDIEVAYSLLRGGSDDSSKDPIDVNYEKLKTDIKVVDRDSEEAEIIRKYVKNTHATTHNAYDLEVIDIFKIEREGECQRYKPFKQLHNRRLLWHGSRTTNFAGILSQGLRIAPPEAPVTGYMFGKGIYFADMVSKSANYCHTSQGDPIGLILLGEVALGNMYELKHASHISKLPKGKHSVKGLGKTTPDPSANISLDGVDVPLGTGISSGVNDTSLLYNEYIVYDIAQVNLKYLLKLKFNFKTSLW", "UniProt Q9BXW9": "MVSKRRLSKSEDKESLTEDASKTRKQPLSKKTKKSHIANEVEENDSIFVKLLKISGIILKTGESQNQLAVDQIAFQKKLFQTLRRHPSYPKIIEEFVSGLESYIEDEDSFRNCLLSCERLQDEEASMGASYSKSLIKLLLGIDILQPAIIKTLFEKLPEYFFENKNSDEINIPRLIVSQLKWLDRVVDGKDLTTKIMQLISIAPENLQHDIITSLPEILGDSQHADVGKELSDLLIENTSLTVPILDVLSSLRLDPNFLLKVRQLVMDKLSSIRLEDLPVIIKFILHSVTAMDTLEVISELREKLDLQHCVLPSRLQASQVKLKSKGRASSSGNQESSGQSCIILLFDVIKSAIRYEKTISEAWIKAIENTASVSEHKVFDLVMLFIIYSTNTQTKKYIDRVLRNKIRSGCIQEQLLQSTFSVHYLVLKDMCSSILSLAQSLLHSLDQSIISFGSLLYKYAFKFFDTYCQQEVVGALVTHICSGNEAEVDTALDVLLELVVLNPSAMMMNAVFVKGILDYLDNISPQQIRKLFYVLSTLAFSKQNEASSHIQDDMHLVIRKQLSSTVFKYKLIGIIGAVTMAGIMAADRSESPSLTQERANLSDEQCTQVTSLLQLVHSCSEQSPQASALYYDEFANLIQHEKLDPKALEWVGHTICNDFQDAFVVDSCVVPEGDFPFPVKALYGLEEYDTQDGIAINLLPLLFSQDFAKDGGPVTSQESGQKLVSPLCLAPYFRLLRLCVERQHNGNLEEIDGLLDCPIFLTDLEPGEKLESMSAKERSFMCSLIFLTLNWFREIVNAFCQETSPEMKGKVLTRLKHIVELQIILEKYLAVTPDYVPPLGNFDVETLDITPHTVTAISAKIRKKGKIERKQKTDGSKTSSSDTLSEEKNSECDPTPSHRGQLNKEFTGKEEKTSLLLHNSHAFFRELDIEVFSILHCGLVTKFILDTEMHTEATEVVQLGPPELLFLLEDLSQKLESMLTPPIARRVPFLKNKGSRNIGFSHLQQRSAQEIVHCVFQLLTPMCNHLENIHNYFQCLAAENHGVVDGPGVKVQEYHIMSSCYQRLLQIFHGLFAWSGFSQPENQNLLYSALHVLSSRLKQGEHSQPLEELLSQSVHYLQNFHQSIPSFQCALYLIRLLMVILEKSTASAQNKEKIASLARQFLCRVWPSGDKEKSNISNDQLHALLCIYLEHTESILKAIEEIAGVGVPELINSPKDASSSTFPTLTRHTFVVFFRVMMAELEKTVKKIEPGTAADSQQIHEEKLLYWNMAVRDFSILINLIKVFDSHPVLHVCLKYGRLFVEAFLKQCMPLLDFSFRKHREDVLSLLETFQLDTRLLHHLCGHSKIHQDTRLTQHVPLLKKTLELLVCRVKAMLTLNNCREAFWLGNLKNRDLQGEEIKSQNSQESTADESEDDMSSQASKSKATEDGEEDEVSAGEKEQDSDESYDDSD", "UniProt Q06609": "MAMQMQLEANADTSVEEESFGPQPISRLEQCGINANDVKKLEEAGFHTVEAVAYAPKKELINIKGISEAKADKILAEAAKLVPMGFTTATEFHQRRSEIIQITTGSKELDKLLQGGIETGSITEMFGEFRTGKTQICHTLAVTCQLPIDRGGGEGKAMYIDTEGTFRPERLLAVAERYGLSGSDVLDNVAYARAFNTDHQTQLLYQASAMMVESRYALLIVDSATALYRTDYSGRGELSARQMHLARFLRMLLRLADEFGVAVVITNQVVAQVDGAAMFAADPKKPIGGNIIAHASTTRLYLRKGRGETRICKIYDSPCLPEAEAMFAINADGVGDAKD", "UniProt Q9NVI1": "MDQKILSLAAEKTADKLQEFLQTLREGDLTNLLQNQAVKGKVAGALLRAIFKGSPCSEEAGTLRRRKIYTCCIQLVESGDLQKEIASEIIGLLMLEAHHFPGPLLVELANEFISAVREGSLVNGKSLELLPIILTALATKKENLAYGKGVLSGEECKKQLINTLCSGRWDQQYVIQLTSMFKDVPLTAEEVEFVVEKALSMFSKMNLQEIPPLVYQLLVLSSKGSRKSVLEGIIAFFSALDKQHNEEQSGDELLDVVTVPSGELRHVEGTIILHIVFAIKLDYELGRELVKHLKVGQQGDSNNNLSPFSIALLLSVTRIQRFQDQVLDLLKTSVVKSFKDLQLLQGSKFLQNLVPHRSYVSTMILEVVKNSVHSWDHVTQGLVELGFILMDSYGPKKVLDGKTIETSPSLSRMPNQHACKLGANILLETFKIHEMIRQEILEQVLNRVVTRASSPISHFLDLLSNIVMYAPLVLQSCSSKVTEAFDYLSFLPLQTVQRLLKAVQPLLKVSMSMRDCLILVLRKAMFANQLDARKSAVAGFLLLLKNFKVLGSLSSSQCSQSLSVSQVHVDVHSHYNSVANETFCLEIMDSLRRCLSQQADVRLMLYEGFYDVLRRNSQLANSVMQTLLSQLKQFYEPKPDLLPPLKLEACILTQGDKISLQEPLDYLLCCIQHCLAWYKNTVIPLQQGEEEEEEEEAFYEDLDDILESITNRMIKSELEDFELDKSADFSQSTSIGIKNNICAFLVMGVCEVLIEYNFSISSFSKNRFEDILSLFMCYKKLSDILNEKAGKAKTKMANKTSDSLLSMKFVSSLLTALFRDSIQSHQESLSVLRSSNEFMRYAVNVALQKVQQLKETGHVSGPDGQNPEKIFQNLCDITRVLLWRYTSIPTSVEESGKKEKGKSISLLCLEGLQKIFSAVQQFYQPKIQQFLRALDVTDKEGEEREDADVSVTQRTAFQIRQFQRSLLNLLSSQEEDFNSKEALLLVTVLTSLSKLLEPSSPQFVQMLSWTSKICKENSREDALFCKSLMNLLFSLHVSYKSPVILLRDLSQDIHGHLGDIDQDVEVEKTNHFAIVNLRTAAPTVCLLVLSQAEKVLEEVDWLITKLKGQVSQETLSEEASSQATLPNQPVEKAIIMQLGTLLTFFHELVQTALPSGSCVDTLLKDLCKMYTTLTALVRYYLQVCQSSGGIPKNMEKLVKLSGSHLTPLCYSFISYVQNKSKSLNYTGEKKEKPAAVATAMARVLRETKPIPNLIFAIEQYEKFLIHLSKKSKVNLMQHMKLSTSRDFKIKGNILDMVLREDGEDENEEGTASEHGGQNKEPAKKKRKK"}, "source": "paper PMC12151214", "key": {"[1]": {"target": "HMGA1 (high mobility group A1) of the co-IP in Fig. S1J (human) (UniProt P17096)", "assay": "co-IP; validation of BioGRID interactors of HMGA1 (Fig. S1J); cells, plasmids and beads not shown"}, "[2]": {"target": "SFB-HMGA1 (high mobility group A1), expressed in HeLa cells (human) (UniProt P17096)", "assay": "co-IP; HeLa cells transfected 24 h, untreated or treated with 4 mM HU for 3 h; lysate (NETN buffer with benzonase) on anti-S beads, western blot"}, "[3]": {"target": "T1, CHFR of the exogenous co-IP (Figure 6A), expressed in HEK293T cells (human) (UniProt Q96EP1)", "T1 sequence": "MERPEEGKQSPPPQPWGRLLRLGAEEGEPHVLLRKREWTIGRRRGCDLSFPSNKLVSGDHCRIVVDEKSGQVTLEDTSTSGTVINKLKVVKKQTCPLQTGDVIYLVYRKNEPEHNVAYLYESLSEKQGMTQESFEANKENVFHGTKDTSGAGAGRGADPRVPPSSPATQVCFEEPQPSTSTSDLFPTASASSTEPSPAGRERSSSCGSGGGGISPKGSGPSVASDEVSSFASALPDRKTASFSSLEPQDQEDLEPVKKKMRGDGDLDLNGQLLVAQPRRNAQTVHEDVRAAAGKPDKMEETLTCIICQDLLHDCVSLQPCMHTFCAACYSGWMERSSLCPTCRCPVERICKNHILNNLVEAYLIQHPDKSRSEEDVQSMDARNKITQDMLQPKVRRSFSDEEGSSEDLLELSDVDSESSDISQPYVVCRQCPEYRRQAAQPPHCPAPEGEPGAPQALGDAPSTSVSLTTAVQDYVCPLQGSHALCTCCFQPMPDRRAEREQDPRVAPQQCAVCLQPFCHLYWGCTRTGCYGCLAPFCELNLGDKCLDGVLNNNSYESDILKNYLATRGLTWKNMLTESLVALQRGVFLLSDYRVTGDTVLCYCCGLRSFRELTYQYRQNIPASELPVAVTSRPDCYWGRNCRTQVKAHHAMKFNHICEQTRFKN", "assay": "co-IP; HEK293T cells transiently transfected 24 h; lysate (NETN buffer with benzonase) on anti-S beads overnight at 4 °C, western blot"}, "[4]": {"target": "NUDT16, expressed in HEK293T cells (human) (UniProt Q96DE0)", "assay": "co-IP; HEK293T cells transiently transfected 24 h; lysate (NETN buffer with benzonase) on anti-S beads overnight at 4 °C, western blot"}, "[5]": {"target": "PARP1, expressed in HEK293T cells (human) (UniProt P09874)", "assay": "co-IP; HEK293T cells transiently transfected 24 h; lysate (NETN buffer with benzonase) on anti-S beads overnight at 4 °C, western blot"}, "[6]": {"target": "T2, SFB-CHFR (WT) (human) (UniProt Q96EP1)", "T2 sequence": "T1 sequence", "assay": "co-IP; HEK293T cells transiently transfected 24 h; lysate (NETN buffer with benzonase) on anti-S beads overnight at 4 °C, western blot"}, "[7]": {"target": "NUDT16, endogenous in HepG2 cells (human (endogenous in HepG2)) (UniProt Q96DE0)", "assay": "co-IP; endogenous proteins, HepG2 lysate, anti-NUDT16 antibodies against anti-IgG control, western blot"}, "[8]": {"target": "T3, CHFR, endogenous in HeLa cells (human (endogenous in HeLa)) (UniProt Q96EP1)", "T3 sequence": "T1 sequence", "assay": "co-IP; endogenous proteins, HeLa lysate, anti-CHFR antibodies against anti-IgG control, western blot"}, "[9]": {"target": "T4, HA-CHFR (human) (UniProt Q96EP1)", "T4 sequence": "T1 sequence", "assay": "co-IP; HEK293T cells transfected with HA-CHFR and SFB-HMGA1 (WT or E47/50Q); lysate on anti-HA beads, western blot"}}, "note": "Results are given in words; binding and its absence hold for the method and conditions named. In cells and extracts the contact can be indirect. Some entries that bind do so weakly or less than the wild type. For some assays here: Tags and fused reporters may be left off the sequences shown."}
{"substance": "FANCD2 (from UniProt Q9BXW9 1-1451)", "values": [{"measurement": "binding", "setting": "[1]", "value": "binds"}, {"measurement": "binding", "setting": "[2]", "value": "binds"}]}
{"substance": "RAD51 (from UniProt Q06609 1-339)", "values": [{"measurement": "binding", "setting": "[1]", "value": "binds"}]}
{"substance": "HMGA1 (high mobility group A1) in HEK293T lysate, co-IPs with anti-S beads (from UniProt P17096 1-107)", "values": [{"measurement": "binding", "setting": "[3]", "value": "binds"}, {"measurement": "binding", "setting": "[4]", "value": "binds"}, {"measurement": "binding", "setting": "[5]", "value": "binds"}, {"measurement": "binding", "setting": "[6]", "value": "binds"}]}
{"substance": "HMGA1, endogenous in HepG2 cells (from UniProt P17096 1-107)", "values": [{"measurement": "binding", "setting": "[7]", "value": "binds"}]}
{"substance": "HMGA1, endogenous in HeLa cells (from UniProt P17096 1-107)", "values": [{"measurement": "binding", "setting": "[8]", "value": "binds"}]}
{"substance": "SFB-HMGA1 (WT), expressed in HEK293T cells (from UniProt P17096 1-107)", "values": [{"measurement": "binding", "setting": "[9]", "value": "binds"}]}
{"substance": "FANCI (from UniProt Q9NVI1 1-1328)", "values": [{"measurement": "binding", "setting": "[1]", "value": "binds"}]}
